In patent US20180000768A1, “INTESTINAL FXR AGONISM ENHANCES GLP-1 SIGNALING TO RESTORE PANCREATIC BETA CELL FUNCTIONS” (Salk Institute for Biological Studies, priority 2015, published 2018):

System: Leptin-deficient ob/ob mice
Experiment: metabolic phenotype and glucose homeostasis of treated ob/ob mice
Format: in vivo, mouse
Description: Leptin-deficient ob/ob mice were purchased from Jackson laboratory (stock no. 000632). Each mouse consumed 100 mg per kg of body weight Fex (in corn oil) per day by oral gavage for 5 weeks. For in vivo analog study, each mouse consumed 50 mg per kg of body weight Fex-D (in corn oil) per day by oral gavage for 14 days. For GLP-1 receptor antagonist study, each mouse was daily treated with 100 μg per kg of body weight Exendin 9-39 amide (Abcam) via intraperitoneal injection for 2 weeks. For INT-777 study, each mouse was daily gavaged with 60 mg per kg of body weight INT-777 (in corn oil) for 5 weeks. […] Core body temperature was measured with a clinical rectal thermometer (Thermalert model TH-5; Physitemp). […] Tail blood was drawn at indicated time intervals, and blood glucose level was measured with a One Touch Ultra glucometer (LifeScan). Body composition was measured with Echo MRI-100 body composition analyzer (Echo Medical Systems). […]
Real-time metabolic analyses were conducted in a Comprehensive Lab Animal Monitoring System (Columbus Instruments). CO2 production, O2 consumption, RQ (relative rates of carbohydrate versus fat oxidation) and ambulatory counts were determined for 4 consecutive days and nights, with at least 24-h for adaptation before data recording. […]

For COC(=O)/C=C/c1cccc(N(Cc2ccc(-c3ccc(N(C)C)cc3)cc2)C(=O)C2CCCCC2)c1 [Fexaramine], which body weight gain (Fex 100 mg/kg daily oral gavage, 5 weeks) is on record?
The body weight gain was “did not exhibit any changes”.

What about the “body weight compared to vehicle treatment” value (Fex 100 mg/kg/day for 2 weeks) of the same compound?
Its value is “Neither Fex nor Fex-D treatment led to any changes”.
